# In US20110015128A1:
# By UniProt entry, the sequences of proteins in these tests, tags left out. Where a name states a change or a piece, a line headed by the entry shows the natural chain unless it says otherwise.
# UniProt P00742: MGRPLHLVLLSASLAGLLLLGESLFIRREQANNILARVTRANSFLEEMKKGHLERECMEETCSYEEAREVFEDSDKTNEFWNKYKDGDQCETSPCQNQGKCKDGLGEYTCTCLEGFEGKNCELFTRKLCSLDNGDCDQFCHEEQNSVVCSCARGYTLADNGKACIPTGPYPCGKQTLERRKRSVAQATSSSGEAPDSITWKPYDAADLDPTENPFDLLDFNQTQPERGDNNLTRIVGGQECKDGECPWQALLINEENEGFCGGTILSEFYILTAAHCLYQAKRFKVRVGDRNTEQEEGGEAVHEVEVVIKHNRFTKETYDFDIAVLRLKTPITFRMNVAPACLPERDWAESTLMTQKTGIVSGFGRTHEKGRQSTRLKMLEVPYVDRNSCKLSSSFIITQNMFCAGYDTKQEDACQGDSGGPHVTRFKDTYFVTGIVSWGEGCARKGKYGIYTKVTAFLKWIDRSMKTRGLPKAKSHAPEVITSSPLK
# No constants are given. Whether binding was seen depends on the method and setting. Some results given as binding are weak or reduced against the parent protein; the word gives no strength.
# B1: soybean trypsin inhibitor-agarose (STI-Agarose, Sigma Catalog #T0637) (protein, UniProt P01070 25-205, looked up)
# chain: DFVLDNEGNPLENGGTYYILSDITAFGGIRAAPTGNERCPLTVVQSRNELDKGIGTIISSPYRIRFIAEGHPLSLKFDSFAVIMLCVGIPTEWSVVEDLPEGPAVKIGENKDAMDGWFRLERVSDDEFNNYKLVFCPQQAEDDKCGDIGISIDHDDGTRRLVVSKNKPLVVQFQKLDKESL
# modifications: coupled to agarose
# Target: r-Antidote (recombinant antidote; human factor Xa triple mutant after removal of the RKRRKR linker) (human) (UniProt P00742)
# Assay: affinity chromatography on immobilised soybean trypsin inhibitor
binder,measurement,value
B1,binding,binds
